# From PubChem BioAssay (EPA / NIEHS)
# Protein sequences, listed by entry. Tags and fused reporters are not part of them. Lines headed by an entry give the natural chain unless they say otherwise; changes in a name come on top.
# UniProt P10276, whole entry, looked up: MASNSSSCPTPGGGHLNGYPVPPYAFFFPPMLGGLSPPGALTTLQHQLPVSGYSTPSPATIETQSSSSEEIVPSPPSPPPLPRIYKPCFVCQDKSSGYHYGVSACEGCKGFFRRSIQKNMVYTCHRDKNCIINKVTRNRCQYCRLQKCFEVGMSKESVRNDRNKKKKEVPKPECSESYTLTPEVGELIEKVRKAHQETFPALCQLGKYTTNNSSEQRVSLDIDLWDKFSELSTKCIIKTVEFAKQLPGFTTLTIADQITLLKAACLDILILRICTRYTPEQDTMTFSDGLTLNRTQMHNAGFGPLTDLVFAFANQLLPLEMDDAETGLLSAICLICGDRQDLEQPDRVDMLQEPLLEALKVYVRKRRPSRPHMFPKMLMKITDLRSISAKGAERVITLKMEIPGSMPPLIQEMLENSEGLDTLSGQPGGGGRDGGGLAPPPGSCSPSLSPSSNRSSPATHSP
# UniProt P37231: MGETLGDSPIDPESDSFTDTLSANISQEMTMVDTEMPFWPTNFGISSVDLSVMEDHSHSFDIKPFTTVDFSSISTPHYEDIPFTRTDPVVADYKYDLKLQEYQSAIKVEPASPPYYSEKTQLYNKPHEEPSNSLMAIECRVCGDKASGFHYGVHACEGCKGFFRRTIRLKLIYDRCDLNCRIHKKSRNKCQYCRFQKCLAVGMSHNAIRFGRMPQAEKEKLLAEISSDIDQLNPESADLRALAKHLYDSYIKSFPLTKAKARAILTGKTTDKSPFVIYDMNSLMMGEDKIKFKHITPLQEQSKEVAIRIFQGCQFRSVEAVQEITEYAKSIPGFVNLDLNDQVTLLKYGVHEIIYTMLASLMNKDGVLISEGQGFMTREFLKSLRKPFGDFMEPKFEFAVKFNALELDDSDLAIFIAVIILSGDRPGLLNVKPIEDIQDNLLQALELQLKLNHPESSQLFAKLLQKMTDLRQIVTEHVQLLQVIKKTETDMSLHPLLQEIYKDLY
# UniProt P13631, whole entry, looked up: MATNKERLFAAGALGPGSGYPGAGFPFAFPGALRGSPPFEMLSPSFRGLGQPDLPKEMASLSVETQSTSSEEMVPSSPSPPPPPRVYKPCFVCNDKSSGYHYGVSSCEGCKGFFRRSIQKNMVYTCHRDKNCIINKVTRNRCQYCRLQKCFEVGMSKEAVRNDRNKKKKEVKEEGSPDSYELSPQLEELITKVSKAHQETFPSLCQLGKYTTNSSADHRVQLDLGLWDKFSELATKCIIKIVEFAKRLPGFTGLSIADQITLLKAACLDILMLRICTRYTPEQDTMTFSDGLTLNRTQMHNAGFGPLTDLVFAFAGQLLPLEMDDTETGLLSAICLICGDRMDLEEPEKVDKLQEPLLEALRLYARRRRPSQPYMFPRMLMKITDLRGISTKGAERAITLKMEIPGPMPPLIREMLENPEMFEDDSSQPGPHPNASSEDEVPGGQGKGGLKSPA
# UniProt Q92753: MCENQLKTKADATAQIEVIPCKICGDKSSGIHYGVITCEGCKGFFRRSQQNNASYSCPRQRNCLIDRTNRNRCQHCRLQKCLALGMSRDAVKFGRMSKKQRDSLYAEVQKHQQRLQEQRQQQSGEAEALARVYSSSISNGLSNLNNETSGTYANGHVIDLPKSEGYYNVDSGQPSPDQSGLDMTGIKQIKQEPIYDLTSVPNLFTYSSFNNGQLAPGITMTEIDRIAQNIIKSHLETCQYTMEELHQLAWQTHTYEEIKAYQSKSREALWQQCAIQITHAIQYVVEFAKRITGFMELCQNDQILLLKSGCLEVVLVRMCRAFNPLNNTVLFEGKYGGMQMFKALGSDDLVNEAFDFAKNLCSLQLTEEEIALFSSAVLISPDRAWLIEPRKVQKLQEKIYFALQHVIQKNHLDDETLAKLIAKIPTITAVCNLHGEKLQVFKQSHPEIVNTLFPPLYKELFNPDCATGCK
# UniProt P19793: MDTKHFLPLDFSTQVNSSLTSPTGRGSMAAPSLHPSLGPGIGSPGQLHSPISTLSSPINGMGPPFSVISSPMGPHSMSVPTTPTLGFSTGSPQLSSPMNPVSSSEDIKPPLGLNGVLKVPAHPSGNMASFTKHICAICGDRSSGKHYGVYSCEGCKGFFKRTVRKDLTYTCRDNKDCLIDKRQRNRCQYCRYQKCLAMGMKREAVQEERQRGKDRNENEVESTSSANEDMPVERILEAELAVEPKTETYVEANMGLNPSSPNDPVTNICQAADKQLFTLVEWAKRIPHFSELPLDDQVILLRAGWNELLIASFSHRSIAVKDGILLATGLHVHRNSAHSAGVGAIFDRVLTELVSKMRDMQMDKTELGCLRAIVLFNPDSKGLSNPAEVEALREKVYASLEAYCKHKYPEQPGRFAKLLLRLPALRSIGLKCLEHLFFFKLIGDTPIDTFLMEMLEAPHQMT
# UniProt P28702: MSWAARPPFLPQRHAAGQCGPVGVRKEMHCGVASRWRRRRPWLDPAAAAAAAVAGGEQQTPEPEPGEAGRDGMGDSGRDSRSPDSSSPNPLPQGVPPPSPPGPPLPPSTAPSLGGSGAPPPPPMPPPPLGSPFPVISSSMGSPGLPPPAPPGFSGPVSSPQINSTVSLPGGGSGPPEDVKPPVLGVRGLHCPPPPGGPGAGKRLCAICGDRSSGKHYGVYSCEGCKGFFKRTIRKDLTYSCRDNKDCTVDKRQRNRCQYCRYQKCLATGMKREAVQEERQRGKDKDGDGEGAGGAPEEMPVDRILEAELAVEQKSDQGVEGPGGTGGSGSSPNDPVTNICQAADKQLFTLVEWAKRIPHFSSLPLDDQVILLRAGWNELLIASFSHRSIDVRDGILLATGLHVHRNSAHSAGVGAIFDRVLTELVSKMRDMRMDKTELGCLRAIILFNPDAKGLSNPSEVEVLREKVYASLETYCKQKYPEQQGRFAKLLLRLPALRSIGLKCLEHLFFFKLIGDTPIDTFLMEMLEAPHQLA
# UniProt P10827: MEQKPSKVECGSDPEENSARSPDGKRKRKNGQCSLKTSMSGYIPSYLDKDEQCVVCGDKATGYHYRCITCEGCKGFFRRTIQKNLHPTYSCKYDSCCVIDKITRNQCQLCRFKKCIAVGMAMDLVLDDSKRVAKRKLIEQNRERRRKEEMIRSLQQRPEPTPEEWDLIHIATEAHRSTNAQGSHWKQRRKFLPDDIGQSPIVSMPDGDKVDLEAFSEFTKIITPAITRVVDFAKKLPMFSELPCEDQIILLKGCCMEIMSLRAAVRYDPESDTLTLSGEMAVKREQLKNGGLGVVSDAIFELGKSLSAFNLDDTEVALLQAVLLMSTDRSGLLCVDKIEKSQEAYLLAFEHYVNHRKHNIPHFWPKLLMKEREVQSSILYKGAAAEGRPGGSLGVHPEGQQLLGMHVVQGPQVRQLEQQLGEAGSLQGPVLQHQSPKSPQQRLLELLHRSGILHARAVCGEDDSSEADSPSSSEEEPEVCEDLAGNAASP
# UniProt P11473: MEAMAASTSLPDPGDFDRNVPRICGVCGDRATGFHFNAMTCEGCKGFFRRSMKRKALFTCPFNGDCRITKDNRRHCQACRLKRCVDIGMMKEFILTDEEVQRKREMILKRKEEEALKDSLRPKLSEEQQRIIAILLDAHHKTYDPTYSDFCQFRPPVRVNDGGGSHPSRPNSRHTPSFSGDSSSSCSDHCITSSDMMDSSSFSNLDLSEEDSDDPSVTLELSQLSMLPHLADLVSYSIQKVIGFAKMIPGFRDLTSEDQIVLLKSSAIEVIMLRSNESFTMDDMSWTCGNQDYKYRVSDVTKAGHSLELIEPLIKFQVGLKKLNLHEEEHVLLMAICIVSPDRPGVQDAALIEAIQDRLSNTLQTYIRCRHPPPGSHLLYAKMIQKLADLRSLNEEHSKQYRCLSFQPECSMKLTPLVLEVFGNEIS
# UniProt P51449: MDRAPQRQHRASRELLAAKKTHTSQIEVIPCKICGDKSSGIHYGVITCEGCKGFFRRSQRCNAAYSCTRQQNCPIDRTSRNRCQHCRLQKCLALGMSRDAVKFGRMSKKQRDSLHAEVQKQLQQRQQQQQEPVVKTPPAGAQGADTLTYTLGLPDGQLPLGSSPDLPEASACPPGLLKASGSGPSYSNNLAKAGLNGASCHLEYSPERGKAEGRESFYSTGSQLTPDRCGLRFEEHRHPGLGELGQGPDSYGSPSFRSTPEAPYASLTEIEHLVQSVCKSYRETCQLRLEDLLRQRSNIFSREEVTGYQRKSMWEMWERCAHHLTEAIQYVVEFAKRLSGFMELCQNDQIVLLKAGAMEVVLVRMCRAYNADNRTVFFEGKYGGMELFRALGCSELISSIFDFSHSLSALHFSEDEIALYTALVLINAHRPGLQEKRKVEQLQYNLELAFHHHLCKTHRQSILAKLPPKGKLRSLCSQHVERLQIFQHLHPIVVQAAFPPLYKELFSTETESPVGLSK
# The inconclusive results got no clear call from the source; some entries with a clear call stand among them for comparison. Potencies of inconclusive entries are doubtful fits and often do not repeat. Activity calls are given as the source filed them. Rule for the calls: active = hit-call score of the fitted dose curve at least 0.9, where 1 is the maximum; inconclusive = response in the unintended direction; inactive = score below 0.9.
# Assays:
# [1] = target: Retinoic acid receptor alpha (Homo sapiens) (UniProt P10276); assay: ATG_RARa_TRANS: Attagene TRANS-FACTORIAL HepG2 Assay for human Retinoic Acid Receptor alpha (RARa) (AID 2283005);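 for AC50: potency for increased reporter signal meaning RARa activation over DMSO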
# Procedure, shortened: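 HepG2 transiently transfected with multiplex GAL4-UAS reporter units including a human RARa–GAL4 chimera; 24 h compound exposure. Reporter mRNA quantified by RT-PCR, 6-FAM labeling and capillary electrophoresis; gain of signal versus DMSO.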
# [2] = target: Peroxisome proliferator-activated receptor gamma (Homo sapiens) (UniProt P37231); assay: ATG_PPARg_TRANS: Attagene TRANS-FACTORIAL HepG2 Assay for human Peroxisome Proliferator-activated Receptor-gamma (PPARg) (AID 2283007)
# Procedure, shortened: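 HepG2 cells transiently transfected with multiplexed GAL4-UAS reporter units and exogenous chimeric NR-Gal4 proteins; reporter mRNA quantified after 24 h compound exposure by RT-PCR, fluorescent labelling, HpaI digestion and capillary electrophoresis; gain-of-signal fitted versus DMSO baseline.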
# [3] = target: human Retinoic Acid Receptor gamma (RARg), RARG (gene 5916) (UniProt P13631); assay: ATG_RARg_TRANS: Attagene TRANS-FACTORIAL HepG2 Assay for human Retinoic Acid Receptor gamma (RARg) (AID 2283009);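 for AC50: AC50 is for reporter induction above DMSO meaning RARg activation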
# Procedure, shortened: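 Gain-of-signal relative to DMSO is reported from fluorescent capillary electrophoresis of RT-PCR reporter products. These came from HepG2 cells expressing transfected RARg-GAL4 chimeras with UAS reporters, harvested 24 h after dosing.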
# [4] = target: human RAR-related Orphan Receptor beta (RORb), RORB (gene 6096) (UniProt Q92753); assay: ATG_RORb_TRANS: Attagene TRANS-FACTORIAL HepG2 Assay for human RAR-related Orphan Receptor beta (RORb) (AID 2283010);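 for AC50: potency for increased reporter mRNA meaning activation of RORb-Gal4 chimera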
# Procedure, shortened: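 Multiplexed transcription-factor reporter assay: HepG2 cells transiently carrying NR-Gal4/GAL4-UAS constructs, 24 h treatment, mRNA quantified by RT-PCR plus capillary electrophoresis fluorescence; activity scored as induction over DMSO.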
# [5] = target: Retinoic acid receptor RXR-alpha (Homo sapiens) (UniProt P19793); assay: ATG_RXRa_TRANS: Attagene TRANS-FACTORIAL HepG2 Assay for human Retinoid X Receptor alpha (RXRa) (AID 2283012)
# Procedure, shortened: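 Chimeric NR-GAL4 trans-activation in HepG2, 24 h treatment; reporter transcripts quantified by fluorescence on capillary electrophoresis, analysed for upward change from DMSO.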
# [6] = target: human Retinoid X Receptor beta (RXRb), RXRB (gene 6257) (UniProt P28702); assay: ATG_RXRb_TRANS: Attagene TRANS-FACTORIAL HepG2 Assay for human Retinoid X Receptor beta (RXRb) (AID 2283013)
# Procedure, shortened: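 After a 24 h incubation with test chemical, transfected HepG2 cells carrying NR-Gal4 fusions and GAL4-UAS reporter transcription units yield RNA whose reporter cDNA is FAM-labelled, HpaI-cut and sized by capillary electrophoresis; increases over DMSO are scored.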
# [7] = target: human Thyroid Receptor alpha (THRa1), THRA (gene 7067) (UniProt P10827); assay: ATG_THRa1_TRANS: Attagene TRANS-FACTORIAL HepG2 Assay for human Thyroid Receptor alpha (THRa1) (AID 2283014)
# Procedure, shortened: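 Transcripts from GAL4-UAS-driven reporters, measured after 24 h compound exposure by RT-PCR plus capillary electrophoresis of 6-FAM-labeled fragments, were fitted for gain of signal relative to DMSO. Cells: transiently transfected HepG2 expressing NR-Gal4 chimeras.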
# [8] = target: human Vitamin D Receptor (VDR), VDR (gene 7421) (UniProt P11473); assay: ATG_VDR_TRANS: Attagene TRANS-FACTORIAL HepG2 Assay for human Vitamin D Receptor (VDR) (AID 2283022)
# Procedure, shortened: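 Transactivation by an exogenous VDR-Gal4 chimera in transiently transfected HepG2 cells was measured as reporter transcript level 24 hours after chemical treatment. RT-PCR products were analysed by capillary electrophoresis and fitted in the positive direction relative to DMSO.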
# [9] = target: human RAR-related Orphan Receptor gamma (RORg), RORC (gene 6097) (UniProt P51449); assay: ATG_RORg_TRANS: Attagene TRANS-FACTORIAL HepG2 Assay for human RAR-related Orphan Receptor gamma (RORg) (AID 2283011);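 for AC50: potency for induction of reporter transcripts above DMSO so activators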
# Procedure, shortened: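 Reporter transcripts from a transfected RORg-GAL4 chimera in HepG2 cells were quantified 24 h after dosing by RT-PCR, 6-FAM labelling, HpaI digestion and capillary electrophoresis; increases over DMSO baseline were fitted.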
smiles,measurement,setting,value
CCOc1ccc2c(c1)C(C)=CC(C)(C)N2,AC50,[1],inconclusive: 164 µM
same,AC50,[2],active: 28.7 µM
same,AC50,[3],inconclusive: 167 µM
same,outcome,[4],inactive
same,AC50,[5],active: 100 µM
same,AC50,[6],active: 6.69 µM
same,AC50,[7],active: 100 µM
same,AC50,[8],active: 150 µM
COC(=O)c1ccccc1OC,AC50,[1],inconclusive: 180 µM
same,AC50,[2],inconclusive: 100 µM
same,AC50,[3],inconclusive: 100 µM
same,AC50,[4],inconclusive: 179 µM
same,AC50,[5],inconclusive: 100 µM
same,AC50,[7],inconclusive: 100 µM
CCOc1nc(F)cc2nc(S(=O)(=O)Nc3c(Cl)cccc3C(=O)OC)nn12,outcome,[1],inactive
same,AC50,[2],active: 46.2 µM
same,outcome,[3],inactive
same,AC50,[4],inconclusive: 100 µM
same,outcome,[9],inactive
same,outcome,[7],inactive
COCCOCCC[Si](C)(O[Si](C)(C)C)O[Si](C)(C)C,AC50,[1],inconclusive: 55.7 µM
same,outcome,[2],inactive
same,outcome,[3],inactive
same,AC50,[4],inconclusive: 5.67 µM
same,AC50,[6],active: 33.4 µM
same,outcome,[8],inactive
O=C1CCC(=O)N1Cl,AC50,[1],inconclusive: 100 µM
same,AC50,[2],inconclusive: 100 µM
same,AC50,[3],inconclusive: 56.7 µM
same,AC50,[9],inconclusive: 0.123 µM
same,AC50,[6],inconclusive: 0.189 µM
CC1CNCC(C)O1 (centres undefined),AC50,[1],inconclusive: 100 µM
same,outcome,[2],inactive
same,outcome,[3],inactive
same,AC50,[4],inconclusive: 100 µM
same,outcome,[9],inactive
same,outcome,[8],inactive
CCN(CC)c1ccc(N=Nc2ccccc2)cc1,AC50,[1],inconclusive: 24.9 µM
same,AC50,[2],active: 4.67 µM
same,outcome,[3],inactive
same,AC50,[4],inconclusive: 100 µM
same,AC50,[9],inconclusive: 44.9 µM
same,outcome,[7],inactive
CC(C)(O)C(=O)c1ccccc1,outcome,[1],inactive
same,AC50,[2],inconclusive: 100 µM
same,AC50,[3],inconclusive: 100 µM
same,AC50,[4],inconclusive: 100 µM
same,outcome,[5],inactive
same,outcome,[6],inactive
same,AC50,[7],inconclusive: 100 µM
same,outcome,[8],inactive
COc1cc(C)ccc1C(C)C,outcome,[1],inactive
same,AC50,[2],inconclusive: 19.8 µM
same,outcome,[3],inactive
same,AC50,[9],inconclusive: 100 µM
same,AC50,[5],inconclusive: 100 µM
same,AC50,[6],active: 100 µM
same,AC50,[8],inconclusive: 100 µM
CC(C)=NNC(N)=S,AC50,[1],inconclusive: 170 µM
same,AC50,[2],inconclusive: 0.0823 µM
same,AC50,[3],inconclusive: 1.3 µM
same,AC50,[4],inconclusive: 0.526 µM
same,outcome,[9],inactive
same,outcome,[7],inactive
O=[N+]([O-])c1ccc(CO)cc1,AC50,[1],inconclusive: 29.6 µM
same,AC50,[2],inconclusive: 100 µM
same,AC50,[3],inconclusive: 100 µM
same,outcome,[4],inactive
same,AC50,[9],inconclusive: 100 µM
same,AC50,[8],inconclusive: 100 µM
O=Cc1ccccc1O,AC50,[1],inconclusive: 100 µM
same,outcome,[2],inactive
same,outcome,[3],inactive
same,outcome,[9],inactive
same,outcome,[5],inactive
same,outcome,[6],inactive

# Quoted at random: four records from the list.
smiles,measurement,setting,value
CCOc1ccc2c(c1)C(C)=CC(C)(C)N2,AC50,[6],active: 6.69 µM
O=[N+]([O-])c1ccc(CO)cc1,AC50,[3],inconclusive: 100 µM
CC1CNCC(C)O1 (centres undefined),outcome,[9],inactive
same,AC50,[4],inconclusive: 100 µM
